Experimental data taken from publication PMC7498005.
These are yes or no findings as the source states them, for the method shown. Some entries that bind do so weakly or less than the wild type.

The chains behind the UniProt entries cited, without tags or fusion partners. Where a name states a change or a piece, a line headed by the entry shows the natural chain unless it says otherwise. A line that says so, or that is headed by a name, gives the form on record, which may keep a tag or linker. Residues count along the entry.
UniProt Q99IB8, residues 1031-1661: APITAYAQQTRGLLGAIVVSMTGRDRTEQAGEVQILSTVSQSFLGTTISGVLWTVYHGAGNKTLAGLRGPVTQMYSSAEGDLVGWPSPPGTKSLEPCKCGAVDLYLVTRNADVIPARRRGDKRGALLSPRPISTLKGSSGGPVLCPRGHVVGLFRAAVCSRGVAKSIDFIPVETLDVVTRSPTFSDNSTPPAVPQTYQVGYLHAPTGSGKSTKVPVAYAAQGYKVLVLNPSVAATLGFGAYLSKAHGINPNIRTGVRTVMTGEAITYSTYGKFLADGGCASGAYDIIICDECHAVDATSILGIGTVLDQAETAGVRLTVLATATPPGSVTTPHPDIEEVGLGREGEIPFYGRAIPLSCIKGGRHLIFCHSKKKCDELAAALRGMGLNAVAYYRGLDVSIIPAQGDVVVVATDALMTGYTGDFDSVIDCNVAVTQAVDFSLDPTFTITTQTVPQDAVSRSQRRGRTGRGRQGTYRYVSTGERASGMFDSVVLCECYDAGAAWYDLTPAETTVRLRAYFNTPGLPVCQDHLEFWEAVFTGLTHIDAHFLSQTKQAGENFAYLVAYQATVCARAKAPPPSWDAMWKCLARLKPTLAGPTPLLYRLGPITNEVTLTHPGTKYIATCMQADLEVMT
UniProt O95197: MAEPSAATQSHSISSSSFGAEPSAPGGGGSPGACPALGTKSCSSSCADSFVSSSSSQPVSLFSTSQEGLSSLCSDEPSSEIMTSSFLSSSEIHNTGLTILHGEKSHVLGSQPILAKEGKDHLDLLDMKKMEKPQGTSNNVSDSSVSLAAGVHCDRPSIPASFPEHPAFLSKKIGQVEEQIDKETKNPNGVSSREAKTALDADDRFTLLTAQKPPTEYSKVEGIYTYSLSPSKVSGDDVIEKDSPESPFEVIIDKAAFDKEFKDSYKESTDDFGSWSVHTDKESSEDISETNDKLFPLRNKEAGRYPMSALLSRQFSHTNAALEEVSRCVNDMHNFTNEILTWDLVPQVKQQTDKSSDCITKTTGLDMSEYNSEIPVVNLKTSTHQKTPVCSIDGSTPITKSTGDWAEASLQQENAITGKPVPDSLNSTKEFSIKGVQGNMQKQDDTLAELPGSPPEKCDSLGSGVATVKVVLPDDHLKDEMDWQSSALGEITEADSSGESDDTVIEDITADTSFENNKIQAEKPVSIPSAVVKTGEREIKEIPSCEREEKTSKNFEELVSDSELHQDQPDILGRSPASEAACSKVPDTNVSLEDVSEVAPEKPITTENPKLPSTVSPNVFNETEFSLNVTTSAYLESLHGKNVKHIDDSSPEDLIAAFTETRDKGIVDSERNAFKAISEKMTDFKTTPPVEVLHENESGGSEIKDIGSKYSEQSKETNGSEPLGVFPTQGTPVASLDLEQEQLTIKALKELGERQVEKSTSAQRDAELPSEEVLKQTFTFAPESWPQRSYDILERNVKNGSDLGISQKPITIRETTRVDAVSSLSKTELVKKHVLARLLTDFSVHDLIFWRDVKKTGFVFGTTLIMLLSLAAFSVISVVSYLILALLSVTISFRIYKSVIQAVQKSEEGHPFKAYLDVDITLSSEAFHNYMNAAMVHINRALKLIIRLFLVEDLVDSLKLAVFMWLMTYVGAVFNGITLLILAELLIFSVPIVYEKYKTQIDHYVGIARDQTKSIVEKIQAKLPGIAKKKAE
Reticulon 3 short isoform (RTN3S) (O95197-3, form named): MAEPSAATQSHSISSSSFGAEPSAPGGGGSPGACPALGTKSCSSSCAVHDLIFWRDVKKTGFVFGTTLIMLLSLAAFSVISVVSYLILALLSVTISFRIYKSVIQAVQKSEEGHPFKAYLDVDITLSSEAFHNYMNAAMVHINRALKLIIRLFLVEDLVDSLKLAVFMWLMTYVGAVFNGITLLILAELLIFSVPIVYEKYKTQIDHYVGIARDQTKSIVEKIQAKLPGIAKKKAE

Molecular target: HCV NS3 (genotype 2a, clone JFH1) (Hepatitis C virus genotype 2a (clone JFH1)) (UniProt Q99IB8)
Assay: RNA ChIP (immunoprecipitation with an anti-dsRNA antibody, Western blot of the precipitate); cells fixed with 4% formaldehyde, lysed in SDS ChIP lysis buffer; 100 ug total protein, 10 ug/ml anti-dsRNA antibody overnight at 4°C, protein A/G agarose; non-specific IgG as IP control; precipitate probed for RTN3L&S and HCV NS3; lysates of Huh7.0, JFH-1 infected Huh7.0 and HCV FL-Replicon cells

Row | Substance | binding
1 | Reticulon 3 long isoform (RTN3L) (from UniProt O95197 1-1032) | binds
2 | Reticulon 3 short isoform (RTN3S) (from UniProt O95197-3 1-236) | binds
